Assay [1] has as its target histamine H3 receptor (human, endogenous) (human (endogenous in caudate-putamen)) (UniProt Q9Y5N1). Briefly: proximity ligation; in situ PLA on paraffin-embedded post-mortem human caudate-putamen sections of grade 3 and grade 4 HD patients.
For assay [2] the target is unchanged. Kind of assay: proximity ligation; in situ PLA on paraffin-embedded post-mortem human caudate-putamen sections of control subjects and grade 0-2 HD patients.
The target is the same in assay [3]. Briefly: condition: only in sections of grade 3-4 HD patients; proximity ligation; in situ PLA on paraffin-embedded post-mortem human caudate-putamen sections of grade 3 and grade 4 HD patients.

The chains behind the UniProt entries cited, without tags or fusion partners.
UniProt Q9Y5N1: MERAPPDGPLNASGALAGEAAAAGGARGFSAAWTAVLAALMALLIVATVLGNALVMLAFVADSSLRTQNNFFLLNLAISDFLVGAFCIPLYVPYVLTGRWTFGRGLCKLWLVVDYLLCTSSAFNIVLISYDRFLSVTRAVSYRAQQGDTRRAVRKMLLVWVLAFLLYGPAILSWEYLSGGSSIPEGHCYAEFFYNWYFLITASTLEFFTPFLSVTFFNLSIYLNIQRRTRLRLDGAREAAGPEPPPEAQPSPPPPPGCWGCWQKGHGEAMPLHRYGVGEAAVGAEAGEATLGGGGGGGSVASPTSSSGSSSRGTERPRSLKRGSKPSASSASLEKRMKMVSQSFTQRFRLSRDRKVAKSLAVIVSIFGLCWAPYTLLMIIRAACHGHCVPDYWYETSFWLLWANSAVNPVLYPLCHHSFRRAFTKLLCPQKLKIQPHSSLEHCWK
UniProt P21728: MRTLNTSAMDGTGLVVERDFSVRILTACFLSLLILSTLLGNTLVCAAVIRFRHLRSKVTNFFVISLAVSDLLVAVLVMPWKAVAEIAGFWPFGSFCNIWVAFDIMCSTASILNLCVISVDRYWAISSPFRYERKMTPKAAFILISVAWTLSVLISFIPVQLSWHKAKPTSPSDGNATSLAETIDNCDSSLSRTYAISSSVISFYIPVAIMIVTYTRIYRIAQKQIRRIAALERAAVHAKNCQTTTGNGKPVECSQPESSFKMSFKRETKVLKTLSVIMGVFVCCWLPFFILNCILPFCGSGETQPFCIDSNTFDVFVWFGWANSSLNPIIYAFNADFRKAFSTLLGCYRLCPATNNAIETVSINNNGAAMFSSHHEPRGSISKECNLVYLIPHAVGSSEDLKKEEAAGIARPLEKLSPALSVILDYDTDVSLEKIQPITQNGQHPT

No constants are given. Whether binding was seen depends on the method and setting. In cells and extracts the contact can be indirect. Some results given as binding are weak or reduced against the parent protein; the word gives no strength.

The source of these data is article PMC7282811.

As for “dopamine D1 receptor (human, endogenous) (from UniProt P21728 1-446)”, the results for the binding result in assay [1], in assay [2] and in assay [3] were “binds weakly”, “binds” and “no binding”, respectively.
